assay: Combined solubility, activity comparison with Pt(II) analog; details: mean over six cell lines; larger is more optimal

SMILES	mean ratio of (SolPt(IV)/SolPt(II)) over (IC50-Pt(IV)/IC50-Pt(II))
Cc1cccc[n+]1[Pt-2]([NH3+])([OH])([OH])([Cl])[Cl] [Compound B]	3.2
CC(=O)[O][Pt]([OH])([Cl])[O]C(C)=O.Cc1ccccn1.N [Compound C]	6.5
CC(=O)[O][Pt]([OH])([Cl])[O]C(C)=O.Cc1ccccn1.N [Compound E]	2.7
